About 430 (29%) of roughly 1,500 compounds were called active. Inconclusive results, whose numbers are uncertain, are shown with a selection of clear calls. No rule for the calls is given here.
Experiment: glucose-independent GLuc insulin release activation – cell-based, INS-1E, Gaussia luciferase, luminescence, cherry-pick, counter-screen for glucose-dependent insulin secretion activators, dose response (AID 977606);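 also: 0% = median of neutral control wells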
Conditions: INS-1E Gaussia luciferase insulin secretion, no glucose; at 35 µM (top of the series) unless noted
With `COc1ccccc1-n1cnc2sc(C)c(C)c2c1=O` the activation was inactive: -11.2% [at 35 µM, 100% = twice neutral-control luminescence].
For `CN1CCN(NC(=O)c2cccc(S(=O)(=O)N3CCCCCC3)c2)CC1`, the activation was inconclusive: 6.69%.
For `Cc1ccc(NC(=O)c2cccs2)cc1NC(=O)c1ccccc1Cl`, the activation was inconclusive: 7.96%.
With `COc1ccc(C(=O)Nc2cccnc2Cl)cc1OC` the activation was inconclusive: -2.25%.
In the case of `COc1cccc(-c2ccc3c(c2)N(Cc2cccc(F)c2)C(=O)C(C)S3)c1` (stereo not given), the activation is reported as inconclusive: 15.9%.
